Data as given in patent publication US20110124564A1, “NUCLEOLIN-BINDING PEPTIDES, NUCLEOLIN- BINDING LYTIC PEPTIDES, FUSION CONSTRUCTS AND METHODS OF MAKING AND USING SAME” (ESPERANCE PHARMACEUTICALS, INC., published 2011).
Part of at least one peptide drawing is inferred or uncertain, most often the ends. Residues, ends and D or L forms follow the SMILES beside them.

Test system: human PC-3 prostate cancer
Assay: PC-3 prostate cancer xenograft in male nude mice
Type: in vivo, mouse
Settings: PC-3 xenograft, i.v. on Days 17, 21, 25 and 30, compared to saline controls

SMILES	Survival
CC(C)C[C@@H](NC(=O)[C@@H](CCCNC(=N)N)NC(=O)[C@@H](C)NC(=O)[C@@H](CO)NC(=O)[C@@H](CCCNC(=N)N)NC(=O)[C@@H](CCCNC(=N)N)NC(=O)[C@@H](CCC(N)=O)NC(=O)[C@@H](CC(C)C)NC(=O)[C@@H](CCCNC(=N)N)NC(=O)[C@@H](C)NC(=O)[C@H](N)CCCNC(=N)N)C(=O)N[C@H](CO)C(=O)N[C@H](C)C(=O)N[C@H](CCCCN)C(=O)O	increased the survival
CC(C)C[C@H](NC(=O)[C@H](CCCNC(=N)N)NC(=O)[C@H](C)NC(=O)[C@H](CO)NC(=O)[C@H](CCCNC(=N)N)NC(=O)[C@H](CCCNC(=N)N)NC(=O)[C@H](CCC(N)=O)NC(=O)[C@H](CC(C)C)NC(=O)[C@H](CCCNC(=N)N)NC(=O)[C@H](C)NC(=O)[C@H](CCCNC(=N)N)NC(=O)[C@H](CCCCN)NC(=O)[C@H](C)NC(=O)[C@H](Cc1ccccc1)NC(=O)[C@H](CCCCN)NC(=O)[C@H](CCCCN)NC(=O)[C@H](C)NC(=O)[C@H](Cc1ccccc1)NC(=O)[C@H](CCCCN)NC(=O)[C@H](C)NC(=O)[C@H](Cc1ccccc1)NC(=O)[C@H](CCCCN)NC(=O)[C@H](CCCCN)NC(=O)[C@H](C)NC(=O)[C@H](Cc1ccccc1)NC(=O)[C@H](CCCCN)NC(=O)[C@H](C)NC(=O)[C@H](Cc1ccccc1)NC(=O)[C@@H](N)CCCCN)C(=O)N[C@@H](CO)C(=O)N[C@@H](C)C(=O)N[C@@H](CCCCN)C(=O)O [EP-302] (H-KFAKFAKKFAKFAKKFAKRARLQRRSARLSAK-OH)	increased survival
